No constants are given. Whether binding was seen depends on the method and setting. Some binding calls cover weakened binding; strength is not graded here. Where a sequence is shown, tags or fusion partners need not be part of it.
Biological target: T1, Pseudomonas phage Φ6 major capsid protein P1 (Pseudomonas phage Φ6) (UniProt P11126)
T1 sequence: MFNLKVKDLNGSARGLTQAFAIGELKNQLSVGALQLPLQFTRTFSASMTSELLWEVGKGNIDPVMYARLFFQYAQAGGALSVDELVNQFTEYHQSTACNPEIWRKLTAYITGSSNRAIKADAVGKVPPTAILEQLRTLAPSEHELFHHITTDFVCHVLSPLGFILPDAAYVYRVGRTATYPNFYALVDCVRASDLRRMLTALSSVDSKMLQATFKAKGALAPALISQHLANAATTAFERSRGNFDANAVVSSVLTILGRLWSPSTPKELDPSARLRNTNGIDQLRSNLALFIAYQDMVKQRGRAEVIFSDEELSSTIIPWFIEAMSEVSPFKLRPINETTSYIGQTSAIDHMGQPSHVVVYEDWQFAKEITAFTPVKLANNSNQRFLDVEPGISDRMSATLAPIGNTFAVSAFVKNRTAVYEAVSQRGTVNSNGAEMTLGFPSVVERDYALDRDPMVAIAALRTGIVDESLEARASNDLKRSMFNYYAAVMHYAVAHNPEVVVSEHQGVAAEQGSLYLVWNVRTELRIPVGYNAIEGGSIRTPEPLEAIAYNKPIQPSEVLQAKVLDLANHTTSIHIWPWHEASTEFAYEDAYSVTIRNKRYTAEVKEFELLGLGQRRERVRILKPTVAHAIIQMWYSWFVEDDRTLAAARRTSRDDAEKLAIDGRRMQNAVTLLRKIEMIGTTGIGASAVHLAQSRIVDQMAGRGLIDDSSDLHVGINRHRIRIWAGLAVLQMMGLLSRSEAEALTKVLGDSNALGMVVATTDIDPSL
Experiment: co-sedimentation; in vitro self-assembly of purified P1, P4 (120:72) and P2 or P2 variant at 1×P2 (P1:P2 120:12), no P7; room temperature, 90 min, 250 to 350 mM NaCl, 20 mM Tris pH 8.0, 6% PEG 4000; rate-zonal centrifugation in 10% to 30% sucrose, P2 copies per particle from SDS-PAGE; both purified

B1: Φ6 P2 surface mutant HERW (histidine-tagged) (enzyme, Pseudomonas phage Φ6, UniProt P11124 1-665, looked up)
chain: MPRRAPAFPLSDIKAQMLFANNIKAQQASKRSFKEGAIETYEGLLSVDPRFLSFKNELSRYLTDHFPANVDEYGRVYGNGVRTNFFGMRHMNGFPMIPATWPLASNLKKRADADLADGPVSERDNLLFRAAVRLMFSDLEPVPLKIRKGSSTCIPYFSNDMGTKIEIAERALEKAEEAGNLMLQGKFDDAYQLHQMGGAYYVVYRAQSTDAITLDPKTGKFVSKDRMVADFEYAVTGGEQGSLFAASKDASRLKEQYGIDVPDGFFCERRRTAMGGPFALNAPIMAVAQPVRNKIYSKYAYTFHHTTRLNKEEKVKEWSLCVATDVSDHDTFWPGWLRDLICDELLNMGYAPWWVKLFETSLKLPVYVGAPAPEQGHTLLGDPSNPDLEVGLSSGQGATDLMGTLLMSITYLVMQLDHTAPHLNSRIKDMPSACRFLDSYWQGAQEIRQISKSDDAILGWTKGRALVGGHALFEMLKEGKVNPSPYMKISYEHGGAFLGDILLYDSRREPGSAIFVGNINSMLNNQFSPEYGVQSGVRDRSKRKRPFPGLAWASMKDTYGACPIYSDVLEAIERCWANAFGESYRAYREDMLKRDTLELSRYVASMARQAGLAELTPIDLEVLADPNKLQYKWTEADVSANIHEVLMHGVSVEKTERFLRSVMPR
notes: source: E. coli BL21(DE3), plasmid pXS30, purified as described for N-terminally histidine-tagged P2; not shown: His6, C-terminal, kept
binding: binds weakly
